In PubChem BioAssay AID1508600 (Functional Genomics Laboratory (NCATS/FGL), 2020):
In all, about 53,000 sequences went through this assay and about 3,700 (7%) were called active.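 How the source made its calls: active means gene knockdowns whose robust z-score for IL-1 alpha signal is at least 2 or at most -2, so actives lie on both sides; inactive means the rest.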 The list shows a part of the results.

Test: Components of the Cytosolic LPS Sensing Pathway: Gene Identification via Genome-wide siRNA Screen;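 further: robust z of the log signal after scaling to non-targeting control siRNA wells of the plate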
Conditions: RAW264.7 macrophages, IL-1a HTRF, actives lie on both sides, screened at 100 nM (by protocol), cells primed 5 h with Pam3CSK4 first
Procedure, shortened: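 Mouse macrophage line RAW264.7 is transfected with siRNA (100 nM final), grown 48h, primed with TLR ligand Pam3CSK4 5 h and given intracellular LipidA 24 h. IL-1a in supernatant is read by HTRF and viability by luminescence.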

z-score, active:
GGACGACGACUUUUUAAAATT against Pnmal1 2.18, GGAUACAUUGAGAAAGACUTT against Tor1aip2 2.43, GGGUGCUCUGAAGAAGCAATT against Olfr488 -2.04, GCAGCAGUAAUGAUGGAUCTT against Ncoa3 2.47, GGACUACUUUAAGGAUUGGTT against Tfip11 -2.97

z-score, inactive:
GGUCAAGUCACUGGUGACGTT against Fabp3 -1.73, GGAUUAAUCAAACUGAGAGTT against Lrrtm2 -1.24, GGUUGUGGAAGCAAGUAUGTT against Slc22a30 -0.498, CUUUGAUGAUAUUGCUGCUTT against Olfr849 0.799, GGAUGAUGACGACAUUGAUTT against Eef1b2 0.292, CCUGGCAUAAGUGGUUUUATT against Zfp82 1.13, GAAGCUGAGUAUCUAUGGUTT against Tmem59 -0.962, GGAAUUAUCAGCGAUAAAGTT against Ska2 0.364, GGUGCCAAUCAUUGUUAUGTT against Kcnv1 1.73, CCACCGAAUUCGGAAAACATT against St6galnac2 1.81, CCACAGACCUCACUUUUGGTT against Dpy30 -1.4, GGGACAGACUGAAAAAUUCTT against Pde4d -0.521, GGACCUGAACGAUCUCGUUTT against Cyp4a12a 1.65, GGGAAGCCAAACAGAAUCATT against 1700041G16Rik 1.54, GGUUACCUGCUGUGUUUUGTT against Muc2 -0.0832, CCACUUCUCAGGUUAAUGGTT against Fen1 -0.611, GGAAAACAACACGAUGAAATT against Tex13b -1.72, GAGGGCCAUCUCUGACAUGTT against Avp 0.369, GGAGCUGUUCAUCGAACAATT against Nol7 0.864, GGUAUUCUUGGAAGGAGGGTT against Prss22 0.153, GGACAAGAAGCUGUCCAAGTT against Atoh7 0.103, GGUUUAUGAUCCACUUUCCTT against Ipp -0.538, GCACCUCCACAAGAAUGAATT against Six2 0.466, GAAUUUGGACAUAGUUAUGTT against Ptcra 0.6, GGCAAAAAUACCCAAUUUUTT against Timm22 -1.12, GCAGUUUGUGGAUAUGUCATT against Treh 0.604, GGAACAGGAAUAACAUGACTT against Vmn1r69 1.04, GGAGGUUCUACCCUGUUCATT against Actr1a 0.48, GGGUUAUGAAGAAGCUCCUTT against Olfr1262 -1.52, GGUUGUGGAAUGCAUCGGATT against Atp11b -1.31, GGACAAGAAAAGGAAGAAGTT against Ap3d1 -0.656, GGUGAAACUGGAAGAUUCUTT against B3gntl1 1.25, GCUAGUUUAAGAGACUUUGTT against Nfatc2ip 0.234, GGUGUUUCAUUAACAGGAATT against Spaar -0.104, GCUCUAUCAAGCUGACGGGTT against Cluap1 0.283, GGUGGUAACGGAAAACCUGTT against Wnt10b 0.496, GGAAGCUCAUUUUCACGUGTT against Slc22a19 1.55, GGUUUGCCUAUUUUUUCUUTT against Trmt10c 1.9, GGGCUUGAGAAAGAGGAUUTT against E330021D16Rik 0.672, GCGGUUCUUACCAAGGACATT against Shf -0.415, GGGAGCACCAGCAAUGGAUTT against Col17a1 0.192, GGAAAUUUGGAUUGAUGAATT against Mef2c -0.909, GGACAAUAUGAGUUUUCUGTT against Glb1 0.732, GCGAAUCAUGAAAUACCAGTT against Arhgef25 -0.0921, CGAUAAAGUCGAAAUCUACTT against Stat2 0.672, GGCUCUCAAACCCAUGUACTT against Foxf2 -0.799, GCUGAUCACAAACGAUUACTT against Arl9 0.559, CCCAAGAGAAAACGGUGCCTT against Fscn1 -1.07, GGUAACUUCAGUCUUGUUATT against Marf1 -0.131, GGGAUCCUCAGAAGGUGAATT against Agfg2 -0.786, GCUCAGAAGUCCAAGAUACTT against Casp12 -1.86, GGAGCGGAGAGAAAGCAUCTT against Mpo -0.649, CGGUGCACAACGUACCAAUTT against Srxn1 -0.0189, GGAAUGACUUCCCUACAAUTT against Dcun1d4 0.175, CGGACUGAUAACUUGGGAATT against Mtpn 0.435, GGUGACAAACUGAUUUUAATT against Mov10l1 -0.492, CGAUGCAUUUUAAAGAUGUTT against Pde8b -0.121, GGUUUUGUGAGCAACCUGCTT against Abcb6 0.346, UAGACACUAACCAGCUGGATT against Olfr1307 1.12, GGUAACUUCUCAUCUCAACTT against Mapkapk3 0.339, GGGCUUUUUCAACAGAGGCTT against Fam241b 0.172, CCAUUACUCAUCGAGAGUGTT against Cenpl 0.101, GGCCUACCUUACCCUAAGATT against Adam32 0.513, GCGAAGCUAGGUUUACUGUTT against Gpr132 1.02, GGUUUUUAAGGCUGUUUACTT against Ttc23 -0.521, GGAAAUGAAGCCAAAAUAATT against Rab33b 0.24, GGGCCUAUAUAACAUCUUGTT against Usp11 0.306, GCUGAACCUAUGAGGGAGATT against Gpank1 0.809, GGGUCAAAAGAUAUUUGUCTT against Pitpna 0.772, GGUGUUCCACCCAACUCAATT against Sil1 -0.226, GCUAGGACAUUCAUUCAACTT against Bbs12 -0.605, CCAGAACUCUCGACACCCUTT against Tlx1 1.61, GCAAAUUGACCAGUCUUUUTT against D230025D16Rik 0.00876, GGUACUUGUAUUGCUCAUUTT against Asf1b 0.151, GGAUUAAAGGCCAUAAGGATT against Zfp747 -0.813, GGGCACAUUCAGAUGUUCGTT against Nmnat2 0.438, CCAGGAGAACAGGAUAUAUTT against Fgr 0.49, GCAGAACCUUGGAAAAAAATT against Mef2a -1.72, CCAUGGCCAAGAACUAGUUTT against Hp 1.26, GGAUUUUGAAGAUGCUUGUTT against Naa35 -0.518, CGAGUACCAUCUUUAUCCATT against Hlcs -1, GGCAACUCCGUAUUAUAACTT against Pcdhb10 1.02, GGCUCAUCAAAGGAAGAAATT against Araf 0.67, CCUUCAAUCUUUCUUUCUGTT against Olfr1465 -0.635, CCAUGAAGACAGGACACUUTT against 4930451E10Rik -0.0509, CAAUAAUGAACAGUAGAGUTT against Olfr798 0.259, CCCGACUUCAGGAUGACAATT against Sigirr 0.143, GGUAAUGAUCCAUUCACCATT against Ly75 -1.47, GCAGAAGUUCAUUUUCCUATT against Olfr145 0.969, CGUGAAGGACAUGUCUAAATT against Sike1 0.186, GGGAUAGGAUUGCAUCAGUTT against Olfr356 -1.69, CGGUGCCCUACAUGCUAAATT against Ebi3 1.72, GGGAUAUGUGAAGCCUCAGTT against Mospd3 -1.21, GGAUGGUUUUCGUCUGACGTT against Umod -0.151, GCAUGUUAAGGGCAAUGGUTT against Fem1al 0.375, GGAGUCCUGUUCUUCUUUATT against Trpv4 -0.854, GGCGCACACUUUCACCUAATT against Tmem170 0.194, GGGUUAUCAACAAAAAUGATT against Agtr1b -0.433, GUGUGCCACAUACUGGUCCTT against Olfr806 0.62, GCGUGUAAUAUUCAUCAUATT against Pdss1 1.67, CCUCAGGUUAUUGAAUAUUTT against Rapgef6 0.502, GGAUUUCAUGAUUCAGGGUTT against Ppih -0.283
